Reference: publication PMC10132990

By UniProt entry, the sequences of proteins in these tests, tags left out. Residues count along the entry.
UniProt Q01097, residues 27-1482: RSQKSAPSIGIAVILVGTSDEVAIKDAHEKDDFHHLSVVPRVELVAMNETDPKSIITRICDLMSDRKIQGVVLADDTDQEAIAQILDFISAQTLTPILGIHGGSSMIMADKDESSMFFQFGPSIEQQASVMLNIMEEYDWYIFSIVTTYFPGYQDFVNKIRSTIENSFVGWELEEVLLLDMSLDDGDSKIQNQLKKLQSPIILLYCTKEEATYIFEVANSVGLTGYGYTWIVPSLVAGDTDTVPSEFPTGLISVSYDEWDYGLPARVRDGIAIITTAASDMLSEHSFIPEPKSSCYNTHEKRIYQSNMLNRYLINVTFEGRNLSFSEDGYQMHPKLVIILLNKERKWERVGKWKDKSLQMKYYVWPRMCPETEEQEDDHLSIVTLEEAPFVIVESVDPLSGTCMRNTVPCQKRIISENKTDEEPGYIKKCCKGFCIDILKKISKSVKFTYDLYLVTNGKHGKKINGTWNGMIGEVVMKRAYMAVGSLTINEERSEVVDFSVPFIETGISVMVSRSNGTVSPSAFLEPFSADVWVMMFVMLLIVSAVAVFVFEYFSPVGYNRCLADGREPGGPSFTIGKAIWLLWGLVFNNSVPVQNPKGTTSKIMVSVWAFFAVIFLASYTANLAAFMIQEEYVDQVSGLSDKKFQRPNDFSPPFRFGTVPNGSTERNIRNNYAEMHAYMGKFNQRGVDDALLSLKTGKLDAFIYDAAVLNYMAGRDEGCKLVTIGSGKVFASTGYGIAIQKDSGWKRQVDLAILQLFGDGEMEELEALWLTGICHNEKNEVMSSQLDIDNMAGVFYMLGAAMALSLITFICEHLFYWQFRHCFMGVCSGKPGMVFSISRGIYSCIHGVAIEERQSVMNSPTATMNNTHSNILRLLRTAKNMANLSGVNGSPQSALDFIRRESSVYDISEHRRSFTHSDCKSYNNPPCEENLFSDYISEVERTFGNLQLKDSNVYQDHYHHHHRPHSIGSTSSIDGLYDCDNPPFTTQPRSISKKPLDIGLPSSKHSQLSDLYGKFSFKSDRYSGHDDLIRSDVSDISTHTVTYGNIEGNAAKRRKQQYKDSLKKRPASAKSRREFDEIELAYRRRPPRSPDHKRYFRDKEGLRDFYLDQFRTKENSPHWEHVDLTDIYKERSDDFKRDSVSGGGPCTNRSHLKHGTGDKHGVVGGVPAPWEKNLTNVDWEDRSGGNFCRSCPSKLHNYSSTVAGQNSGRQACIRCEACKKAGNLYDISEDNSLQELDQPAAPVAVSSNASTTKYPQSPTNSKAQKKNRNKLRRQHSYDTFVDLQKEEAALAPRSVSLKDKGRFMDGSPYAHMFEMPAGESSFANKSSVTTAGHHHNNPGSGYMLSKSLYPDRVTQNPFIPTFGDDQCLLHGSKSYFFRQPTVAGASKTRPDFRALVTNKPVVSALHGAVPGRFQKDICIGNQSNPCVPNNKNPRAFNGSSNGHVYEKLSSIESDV
UniProt Q4ACU6: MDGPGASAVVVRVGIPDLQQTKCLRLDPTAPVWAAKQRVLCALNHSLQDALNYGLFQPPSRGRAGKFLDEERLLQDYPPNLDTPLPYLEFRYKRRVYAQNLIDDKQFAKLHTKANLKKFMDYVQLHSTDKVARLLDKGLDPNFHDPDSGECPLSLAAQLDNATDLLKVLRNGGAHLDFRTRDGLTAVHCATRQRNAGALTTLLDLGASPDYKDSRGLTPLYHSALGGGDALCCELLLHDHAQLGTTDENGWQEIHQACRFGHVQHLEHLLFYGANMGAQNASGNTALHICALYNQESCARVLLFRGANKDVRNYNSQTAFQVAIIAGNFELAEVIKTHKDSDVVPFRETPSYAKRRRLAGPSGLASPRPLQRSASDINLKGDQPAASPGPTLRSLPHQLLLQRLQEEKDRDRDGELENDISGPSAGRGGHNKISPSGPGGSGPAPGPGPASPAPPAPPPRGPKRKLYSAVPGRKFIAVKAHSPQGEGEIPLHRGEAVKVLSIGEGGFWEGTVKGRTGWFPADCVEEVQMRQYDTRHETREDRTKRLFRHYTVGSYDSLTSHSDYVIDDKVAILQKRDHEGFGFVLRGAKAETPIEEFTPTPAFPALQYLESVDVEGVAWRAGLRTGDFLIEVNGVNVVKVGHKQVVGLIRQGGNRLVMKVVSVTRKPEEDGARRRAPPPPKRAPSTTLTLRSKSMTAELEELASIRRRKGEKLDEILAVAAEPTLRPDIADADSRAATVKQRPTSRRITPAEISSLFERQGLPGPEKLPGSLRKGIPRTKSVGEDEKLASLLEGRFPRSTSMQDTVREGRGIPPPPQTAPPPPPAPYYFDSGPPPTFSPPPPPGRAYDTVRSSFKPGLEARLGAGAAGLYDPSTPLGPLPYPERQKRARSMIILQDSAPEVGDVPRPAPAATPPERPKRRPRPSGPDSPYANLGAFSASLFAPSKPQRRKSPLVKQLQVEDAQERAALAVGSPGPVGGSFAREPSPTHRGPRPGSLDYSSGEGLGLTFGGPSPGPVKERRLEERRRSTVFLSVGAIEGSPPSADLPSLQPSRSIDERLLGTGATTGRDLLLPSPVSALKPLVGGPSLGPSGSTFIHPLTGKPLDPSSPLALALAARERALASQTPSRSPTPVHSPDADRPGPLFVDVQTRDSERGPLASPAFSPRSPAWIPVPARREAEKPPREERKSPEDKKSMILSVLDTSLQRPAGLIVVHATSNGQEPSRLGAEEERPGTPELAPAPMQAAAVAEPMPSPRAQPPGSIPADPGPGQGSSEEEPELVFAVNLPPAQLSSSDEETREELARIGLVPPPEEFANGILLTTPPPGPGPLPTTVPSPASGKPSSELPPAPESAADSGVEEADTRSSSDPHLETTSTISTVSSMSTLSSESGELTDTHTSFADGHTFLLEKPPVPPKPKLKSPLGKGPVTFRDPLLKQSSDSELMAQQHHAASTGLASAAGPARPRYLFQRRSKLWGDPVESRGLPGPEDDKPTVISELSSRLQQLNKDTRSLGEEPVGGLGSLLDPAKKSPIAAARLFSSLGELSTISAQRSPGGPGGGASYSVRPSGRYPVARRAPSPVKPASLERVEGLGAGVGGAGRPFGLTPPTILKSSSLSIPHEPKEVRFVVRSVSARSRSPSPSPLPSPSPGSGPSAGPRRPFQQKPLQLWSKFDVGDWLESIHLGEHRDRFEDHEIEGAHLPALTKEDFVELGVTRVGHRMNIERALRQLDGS

T1: Neuro BioID2-SAPAP3 (UniProt Q6PFD5)
T1 sequence: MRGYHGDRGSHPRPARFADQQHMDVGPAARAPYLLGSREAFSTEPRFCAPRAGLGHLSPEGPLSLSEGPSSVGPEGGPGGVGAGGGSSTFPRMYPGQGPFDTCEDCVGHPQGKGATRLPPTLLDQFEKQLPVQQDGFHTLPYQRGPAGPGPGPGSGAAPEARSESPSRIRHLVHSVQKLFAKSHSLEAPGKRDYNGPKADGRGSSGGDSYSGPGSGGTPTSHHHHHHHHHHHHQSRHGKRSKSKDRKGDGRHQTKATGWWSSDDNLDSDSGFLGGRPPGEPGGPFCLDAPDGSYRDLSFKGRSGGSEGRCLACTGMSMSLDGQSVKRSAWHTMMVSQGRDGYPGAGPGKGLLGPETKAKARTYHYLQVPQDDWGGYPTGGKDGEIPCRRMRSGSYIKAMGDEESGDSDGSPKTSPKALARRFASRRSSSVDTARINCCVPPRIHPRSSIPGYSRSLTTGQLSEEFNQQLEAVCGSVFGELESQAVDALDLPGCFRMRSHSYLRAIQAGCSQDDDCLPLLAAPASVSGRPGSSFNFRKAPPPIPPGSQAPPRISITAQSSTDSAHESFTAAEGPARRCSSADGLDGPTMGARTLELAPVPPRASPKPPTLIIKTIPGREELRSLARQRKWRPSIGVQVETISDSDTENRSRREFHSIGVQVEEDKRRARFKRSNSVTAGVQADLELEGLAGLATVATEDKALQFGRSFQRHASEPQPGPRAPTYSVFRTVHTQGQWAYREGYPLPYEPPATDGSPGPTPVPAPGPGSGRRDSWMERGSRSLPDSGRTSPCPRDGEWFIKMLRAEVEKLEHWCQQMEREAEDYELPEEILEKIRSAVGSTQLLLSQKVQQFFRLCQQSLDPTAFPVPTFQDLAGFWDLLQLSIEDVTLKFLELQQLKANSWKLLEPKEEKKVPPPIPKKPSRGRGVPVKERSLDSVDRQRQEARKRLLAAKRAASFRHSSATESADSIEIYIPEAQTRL

T2: Astro BioID2-SAPAP3 (UniProt Q6PFD5)
T2 sequence: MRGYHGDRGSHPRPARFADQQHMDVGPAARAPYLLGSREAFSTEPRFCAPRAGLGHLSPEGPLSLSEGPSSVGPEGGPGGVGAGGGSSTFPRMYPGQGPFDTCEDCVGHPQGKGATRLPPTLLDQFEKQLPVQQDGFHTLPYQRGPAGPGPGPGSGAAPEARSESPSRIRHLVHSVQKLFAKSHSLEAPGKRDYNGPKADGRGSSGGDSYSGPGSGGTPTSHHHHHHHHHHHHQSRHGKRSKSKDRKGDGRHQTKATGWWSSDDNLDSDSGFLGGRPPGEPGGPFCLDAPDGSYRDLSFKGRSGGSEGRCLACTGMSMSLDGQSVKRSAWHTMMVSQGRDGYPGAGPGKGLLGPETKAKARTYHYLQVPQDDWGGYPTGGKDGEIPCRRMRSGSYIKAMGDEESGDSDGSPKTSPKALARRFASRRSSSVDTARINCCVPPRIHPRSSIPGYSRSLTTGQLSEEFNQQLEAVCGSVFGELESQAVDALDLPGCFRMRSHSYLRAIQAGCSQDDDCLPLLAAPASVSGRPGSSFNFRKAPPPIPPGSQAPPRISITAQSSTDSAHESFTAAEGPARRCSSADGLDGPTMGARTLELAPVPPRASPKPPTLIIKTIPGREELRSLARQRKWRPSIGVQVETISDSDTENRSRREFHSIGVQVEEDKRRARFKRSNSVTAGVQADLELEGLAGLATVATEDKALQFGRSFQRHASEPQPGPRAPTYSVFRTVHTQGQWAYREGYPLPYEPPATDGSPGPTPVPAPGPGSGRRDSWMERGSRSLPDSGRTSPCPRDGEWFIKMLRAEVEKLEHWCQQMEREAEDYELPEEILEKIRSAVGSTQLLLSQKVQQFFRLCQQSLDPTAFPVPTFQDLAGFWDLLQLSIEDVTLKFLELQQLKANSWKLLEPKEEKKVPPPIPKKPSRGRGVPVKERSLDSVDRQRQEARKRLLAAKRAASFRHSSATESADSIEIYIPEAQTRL

T3: AQP4–BioID2, P55088
T3 chain: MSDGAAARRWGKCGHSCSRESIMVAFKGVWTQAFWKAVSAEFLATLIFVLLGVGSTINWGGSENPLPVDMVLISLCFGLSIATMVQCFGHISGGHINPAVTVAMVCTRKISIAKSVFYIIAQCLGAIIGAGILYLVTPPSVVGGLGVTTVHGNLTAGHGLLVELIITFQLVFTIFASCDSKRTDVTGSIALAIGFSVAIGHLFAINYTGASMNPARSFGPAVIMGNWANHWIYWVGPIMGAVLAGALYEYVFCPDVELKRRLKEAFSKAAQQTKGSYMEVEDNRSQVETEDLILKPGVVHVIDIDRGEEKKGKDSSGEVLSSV

B1: Dlg3 (protein, UniProt P70175 1-849)
chain: MHKHQHCCKCPECYEVTRLAALRRLEPPGYGDWQVPDPYGPSGGNGASSGYGGYSSQTLPSQAGATPTPRTKAKLIPTGRDVGPVPPKPVPGKSTPKLNGSGPGWWPECTCTNRDWYEQASPAPLLVNPEALEPSLSVNGSDGMFKYEEIVLERGNSGLGFSIAGGIDNPHVPDDPGIFITKIIPGGAAAMDGRLGVNDCVLRVNEVDVSEVVHSRAVEALKEAGPVVRLVVRRRQPPPETIMEVNLLKGPKGLGFSIAGGIGNQHIPGDNSIYITKIIEGGAAQKDGRLQIGDRLLAVNNTNLQDVRHEEAVASLKNTSDMVYLKVAKPGSIHLNDMYAPPDYASTFTALADNHISHNSSLGYLGAVESKVTYPAPPQVPPTRYSPIPRHMLAEEDFTREPRKIILHKGSTGLGFNIVGGEDGEGIFVSFILAGGPADLSGELRRGDRILSVNGVNLRNATHEQAAAALKRAGQSVTIVAQYRPEEYSRFESKIHDLREQMMNSSMSSGSGSLRTSEKRSLYVRALFDYDRTRDSCLPSQGLSFSYGDILHVINASDDEWWQARLVTPHGESEQIGVIPSKKRVEKKERARLKTVKFHARTGMIESNRDFPGLSDDYYGAKNLKGVTSNTSDSESSSKGQEDAILSYEPVTRQEIHYARPVIILGPMKDRVNDDLISEFPHKFGSCVPHTTRPRRDNEVDGQDYHFVVSREQMEKDIQDNKFIEAGQFNDNLYGTSIQSVRAVAERGKHCILDVSGNAIKRLQQAQLYPIAIFIKPKSIEALMEMNRRQTYEQANKIFDKAMKLEQEFGEYFTAIVQGDSLEEIYNKIKQIIEDQSGHYIWVPSPEKL
B2: Cnp (protein, UniProt P16330 1-420)
chain: MNTSFTRKSHTFLPKLFFRKMSSSGAKEKPELQFPFLQDEDTVATLHECKTLFILRGLPGSGKSTLARLILEKYHDGTKMVSADAYKIIPGSRADFSEAYKRLDEDLAGYCRRDIRVLVLDDTNHERERLDQLFEMADQYQYQVVLVEPKTAWRLDCAQLKEKNQWQLSADDLKKLKPGLEKDFLPLYFGWFLTKKSSETLRKAGQVFLEELGNHKAFKKELRHFISGDEPKEKLELVSYFGKRPPGVLHCTTKFCDYGKAAGAEEYAQQEVVKRSYGKAFKLSISALFVTPKTAGAQVVLTDQELQLWPSDLDKPSASEGLPPGSRAHVTLGCAADVQPVQTGLDLLDILQQVKGGSQGEAVGELPRGKLYSLGKGRWMLSLTKKMEVKAIFTGYYGKGKPVPIHGSRKGGAMQICTII
B3: Dstn (protein, UniProt Q9R0P5 1-165)
chain: MASGVQVADEVCRIFYDMKVRKCSTPEEIKKRKKAVIFCLSADKKCIVVEEGKEILVGDVGATITDPFKHFVGMLPEKDCRYALYDASFETKESRKEELMFFLWAPEQAPLKSKMIYASSKDAIKKKFPGIKHEYQANGPEDLNRTCIAEKLGGSLIVAFEGSPV
B4: GLT1 (endogenous), P43006 1-572 (protein)
chain: MASTEGANNMPKQVEVRMHDSHLSSDEPKHRNLGMRMCDKLGKNLLLSLTVFGVILGAVCGGLLRLASPIHPDVVMLIAFPGDILMRMLKMLILPLIISSLITGLSGLDAKASGRLGTRAMVYYMSTTIIAAVLGVILVLAIHPGNPKLKKQLGPGKKNDEVSSLDAFLDLIRNLFPENLVQACFQQIQTVTKKVLVAPPSEEANTTKAVISMLNETMNEAPEETKIVIKKGLEFKDGMNVLGLIGFFIAFGIAMGKMGEQAKLMVEFFNILNEIVMKLVIMIMWYSPLGIACLICGKIIAIKDLEVVARQLGMYMITVIVGLIIHGGIFLPLIYFVVTRKNPFSFFAGIFQAWITALGTASSAGTLPVTFRCLEDNLGIDKRVTRFVLPVGATINMDGTALYEAVAAIFIAQMNGVILDGGQIVTVSLTATLASIGAASIPSAGLVTMLLILTAVGLPTEDISLLVAVDWLLDRMRTSVNVVGDSFGAGIVYHLSKSELDTIDSQHRMQEDIEMTKTQSIYDDKNHRESNSNQCVYAAHNSVVIDECKVTLAANGKSADCSVEEEPWKREK
B5: Slc4a4 (protein, UniProt O88343 1-1079)
chain: MEDEAVLDRGASFLKHVCDEEEVEGHHTIYIGVHVPKSYRRRRRHKRKAGHKEKKEKERISENYSDKSDVENADESSSSILKPLISPAAERIRFILGEEDDSPAPPQLFTELDELLAVDGQEMEWKETARWIKFEEKVEQGGERWSKPHVATLSLHSLFELRTCMEKGSIMLDREASSLPQLVEMIADHQIETGLLKPDLKDKVTYTLLRKHRHQTKKSNLRSLADIGKTVSSASRMFSNPDNGSPAMTHRNLTSSSLNDISDKPEKDQLKNKFMKKLPRDAEASNVLVGEVDFLDTPFIAFVRLQQAVMLGALTEVPVPTRFLFILLGPKGKAKSYHEIGRAIATLMSDEVFHDIAYKAKDRHDLIAGIDEFLDEVIVLPPGEWDPTIRIEPPKSLPSSDKRKNMYSGGENVQMNGDTPHDGGHGGGGHGDCEELQRTGRFCGGLIKDIKRKAPFFASDFYDALNIQALSAILFIYLATVTNAITFGGLLGDATDNMQGVLESFLGTAVSGAIFCLFAGQPLTILSSTGPVLVFERLLFNFSKDHNFDYLEFRLWIGLWSAFMCLVLVATDASFLVQYFTRFTEEGFSSLISFIFIYDAFKKMIKLADYYPINSDFKVGYNTHFSCACLPPDPVNLSVSNDTTLAPEDLPTISSTDMYHNVTFDWAYLSKKECVKYGGKLVGNNCDFVPDITLMSFILFLGTYTSSMAMKKFKTSRYFPTTARKLISDFAIILSILIFCVIDALVGVDTPKLIVPSEFKPTSPNRGWFVPPFGGNPWWVCLAAAIPALLVTILIFMDQQITAVIVNRKEHKLKKGAGYHLDLFWVAILMVVCSFMALPWYVAATVISIAHIDSLKMETETSAPGEQPKFLGVREQRVTGTLVFILTGLSVFMAPILKFIPMPVLYGVFLYMGVASLNGVQFMDRLKLLLMPLKHQPDFIYLRHVPLRRVHLFTFLQVLCLALLWILKSTVAAIIFPVMILALVAVRKGMDYLFSQHDLSFLDDVIPEKDKKKKEDEKKKKKKKGSLDSDNDDSDCPYSEKVPSIKIPMDIMEQQPFLSDNKPLDRERSSTFLERHTSC
B6: hepatic and glial cell adhesion molecule (HepaCAM) (protein, UniProt Q640R3 34-418)
chain: VNITSPVRLIHGTVGKSALLSVQYSSTSSDKPVVKWQLKRDKPVTVVQSIGTEVIGTLRPDYRDRIRLFENGSLLLSDLQLADEGTYEVEISITDDTFTGEKTINLTVDVPISRPQVLVASTTVLELSEAFTLNCSHENGTKPSYTWLKDGKPLLNDSRMLLSPDQKVLTITRVLMEDDDLYSCVVENPISQVRSLPVKITVYRRSSLYIILSTGGIFLLVTLVTVCACWKPSKKSRKKRKLEKQNSLEYMDQNDDRLKSEADTLPRSGEQERKNPMALYILKDKDSSEPDENPATEPRSTTEPGPPGYSVSPPVPGRSPGLPIRSARRYPRSPARSPATGRTHTSPPRAPSSPGRSRSSSRSLRTAGVQRIREQDESGQVEISA
B7: Slc1a3 (protein, UniProt P56564 1-543)
chain: MTKSNGEEPRMGGRMERLQQGVRKRTLLAKKKVQSLTKEDVKSYLFRNAFVLLTVTAVIVGTILGFALRPYKMSYREVKYFSFPGELLMRMLQMLVLPLIISSLVTGMAALDSKASGKMGMRAVVYYMTTTIIAVVIGIIIVIIIHPGKGTKENMYREGKIVQVTAADAFLDLIRNMFPPNLVEACFKQFKTSYEKRSFKVPIQSNETLLGAVINNVSEAMETLTRIREEMVPVPGSVNGVNALGLVVFSMCFGFVIGNMKEQGQALREFFDSLNEAIMRLVAVIMWYAPLGILFLIAGKIVEMEDMGVIGGQLAMYTVTVIVGLLIHAVIVLPLLYFLVTRKNPWVFIGGLLQALITALGTSSSSATLPITFKCLEENNGVDKRITRFVLPVGATINMDGTALYEALAAIFIAQVNNFDLNFGQIITISITATAASIGAAGIPQAGLVTMVIVLTSVGLPTDDITLIIAVDWFLDRLRTTTNVLGDSLGAGIVEHLSRHELKNRDVEMGNSVIEENEMKKPYQLIAQDNEPEKPVADSETKM

Assays:
[1] = target: T1, Neuro BioID2-SAPAP3; assay: proximity labelling; Neuro HA-BioID2-SAPAP3 in striatal neurons in vivo; biotin 24 mg/kg for 7 days; NeutrAvidin pull-down, LC-MS/MS; against GFP control; SAINTexpress FDR 0.05
[2] = target: T2, Astro BioID2-SAPAP3; assay: proximity labelling; Astro HA-BioID2-SAPAP3 in striatal astrocytes in vivo; biotin 24 mg/kg for 7 days; NeutrAvidin pull-down, LC-MS/MS; against GFP control; SAINTexpress FDR 0.05
[3] = target: T3, AQP4–BioID2, P55088; assay: proximity labelling; subcompartment BioID2 fusions (AQP4, EZR, GLT1, KIR4.1, CX43) in striatal astrocytes in vivo; biotin 24 mg/kg for 7 days; NeutrAvidin pull-down, LC-MS/MS; log2(FC) > 1 and FDR < 0.05 versus the same protein fused to GFP; details: remark: other sources report otherwise
[4] = target: GLT1–BioID2 (UniProt P43006); assay: as above

Molecule | binding [1] | binding [2] | also measured
Grin2b (from UniProt Q01097 27-1482) | binds | – | –
Shank3 (from UniProt Q4ACU6 1-1730) | binds | – | –
Syngap1 (from UniProt F6SEU4 1-1340) | binds | – | –
B1 | binds | – | –
B2 | binds | – | –
B3 | – | binds | –
B4 | – | – | binding [3]: binds
B5 | – | binds | –
B6 | – | – | binding [4]: binds
B7 | – | binds | –

These are yes or no findings as the source states them, for the method shown. Binding seen in cells or lysates may run through a third protein. A yes stands for co-enrichment or nearness to the bait. Other partners may have been found.
